Test results as given in PubChem BioAssay AID540336 (Broad Institute, 2011).
Hit rate of the full screen: of about 330,000 compounds, about 520 (0.16%) were called active. Inconclusive means that the source gave no clear call. Such entries were picked first, then a sample of the others.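 Rule for the calls: active = inhibition of at least 50% in every replicate; inconclusive = best replicate reaches 50% inhibition but some replicates fall short; inactive = the rest.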

Amino acid sequences for entries named in this document (tags omitted).
UniProt Q5AAJ8, whole entry, looked up: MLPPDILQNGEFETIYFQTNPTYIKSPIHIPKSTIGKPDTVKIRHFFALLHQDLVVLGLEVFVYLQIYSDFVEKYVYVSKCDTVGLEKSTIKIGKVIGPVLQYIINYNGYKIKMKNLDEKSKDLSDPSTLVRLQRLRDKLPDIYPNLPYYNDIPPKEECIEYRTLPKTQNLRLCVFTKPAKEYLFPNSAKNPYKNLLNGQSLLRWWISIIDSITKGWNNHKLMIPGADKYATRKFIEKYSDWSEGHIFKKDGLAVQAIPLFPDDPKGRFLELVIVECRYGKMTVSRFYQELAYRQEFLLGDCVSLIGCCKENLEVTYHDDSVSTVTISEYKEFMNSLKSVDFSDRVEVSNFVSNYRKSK

The compounds below were run against Histone acetyltransferase RTT109 (Candida albicans (strain SC5314 / ATCC MYA-2876)) (UniProt Q5AAJ8) (assay: Rtt109-Vps75 histone acetyltransferase blockade – biochemical, ThioGlo CoA-SH fluorescence, plate reader, primary screen (AID 540336)). Settings: purified Rtt109/Vps75, ThioGlo CoA-SH fluorescence, 4 h; at 34.9 µM; active compounds read high.
For `C=CCNc1oc(-c2cccc(F)c2)nc1C#N`, the inhibition was inactive: 4.1%. With `O=C(O)/C=C/C(=O)Nc1ccc(S(=O)(=O)N2CCCC2)cc1` the inhibition was active: 63.7%. `O=C1CCc2ccccc2N1Cc1ccccc1` was tested, and the inhibition was inactive: -1.2%. In the case of `C/C(=N/NC(=O)CNC(=O)c1cccs1)c1ccc(Cl)cc1`, the inhibition is reported as inconclusive: 25.8%. For `CN(c1ccccc1)S(=O)(=O)c1ccc(NC(=S)NC(=O)C2CC2)cc1`, the inhibition was inconclusive: 35.6%. In the case of `CCC(=O)c1ccc(OCC(=O)Nc2ccc3c(c2)OCCO3)cc1`, the inhibition is reported as inconclusive: 28.9%. For `COc1ccc(-c2cc(-c3cccs3)nc3sc(C#N)c(N)c23)cc1`, the inhibition was inactive: -6.8%. `CCOC(=O)C(NCc1ccc(OC)cc1)(NC(C)=O)C(F)(F)F` (stereo unspecified) was tested, and the inhibition was inconclusive: 31.4%. `COc1cc2nc(=S)n(CCCN3CCOCC3)c(N)c2cc1OC` was tested, and the inhibition was inconclusive: 45%. For `Cc1ccc(C2=NC(C)(C)N=C2SCC(=O)Nc2ccc(Cl)cc2)cc1`, the inhibition was active: 98.7%. For `CCN(CC(=O)Nc1cc(Cl)ccc1C)C(=O)c1cc(S(=O)(=O)N2CCCCCC2)ccc1OC`, the inhibition was inconclusive: 39%. `O=C(CCC(=O)N(CC(=O)NC1CCCCC1)c1ccc(F)cc1)Nc1ccccn1` was tested, and the inhibition was inconclusive: 32.3%. In the case of `Cc1cc(C)n2nc(SCC(=O)N3CCCC3)nc2n1`, the inhibition is reported as inactive: -14%. `O=C(Nc1ccc(Oc2cccnc2)cc1)C1CCN(Cc2ccccc2F)CC1` was tested, and the inhibition was inconclusive: 38.5%. With `CCc1ccc2nc(N(CCN(C)C)C(=O)c3ccc4ncsc4c3)sc2c1` the inhibition was inconclusive: 49.2%. With `Oc1cc2c(cc1O)C1c3ccc(O)c(O)c3OCC1(O)C2` (stereo unspecified) the inhibition was active: 159%. For `COc1ccc(S(=O)(=O)N2CCC(N3CCN(c4ccccc4OC)CC3)CC2)cc1`, the inhibition was inconclusive: 20.3%. With `OC(CNCC1CCCO1)Cn1c2ccc(Cl)cc2c2cc(Cl)ccc21` (stereo unspecified) the inhibition was inconclusive: 47.3%. For `O=C(CSc1nnc2ccccn12)NNC(=O)c1cccc(Cl)c1`, the inhibition was active: 57.6%. For `Cn1c(=O)c2c(nc(NC3CCCCC3)n2CC(=O)C23CC4CC(CC(C4)C2)C3)n(C)c1=O`, the inhibition was active: 56.5%. In the case of `CC(Sc1nnc2ccccn12)C(=O)Nc1ccc(N2CCOCC2)cc1` (stereo unspecified), the inhibition is reported as inconclusive: 27.1%. `Cc1cc(C)nc(Sc2nc(Cl)nc(N(c3ccccc3)c3ccccc3)n2)n1` was tested, and the inhibition was active: 78.7%. For `CCCn1cc(S(=O)(=O)CC(=O)NC2CCCCC2)c2ccccc21`, the inhibition was active: 50.9%. With `C/C=C/C=N/NC(=O)CN(c1ccc(Br)cc1)S(=O)(=O)c1ccccc1` the inhibition was inactive: 1.5%. For `CC(CC(=O)c1cccs1)CC(=O)c1cccs1`, the inhibition was inconclusive: 27.3%. For `CSc1ccc(/C=C/C(=O)NC(=O)c2ccccc2O)cc1`, the inhibition was inactive: -4.36%. With `CCCCn1cnc2c(SCCc3ccccc3)nc(N)nc21` the inhibition was inactive: -1.38%. `CC1(C)C2CCC1(C)C(OCC[N+](C)(C)CC(=O)OC1CCCCC1)C2` (stereo unspecified) was tested, and the inhibition was active: 57.9%. For `C#CCOCCOCCOCCNc1nc(N2CCN(C(=O)CCCCCCCCCCNC(=O)[C@@H](CCSC)n3cc(CCO)nn3)CC2)nc(N2CCN(C(=O)CCCCCCCCCCNC(=O)[C@H](CCCN=C(N)N)n3cc(C[C@@H](C)CC)nn3)CC2)n1`, the inhibition was inconclusive: 46.6%. In the case of `O=C(CNC(=O)c1n[nH]c2ccccc12)Nc1ccc(F)c(F)c1F`, the inhibition is reported as inactive: -9.27%. `CCOc1cc(/C=C(/C#N)c2ccc(F)cc2)ccc1OCc1ccc(C(=O)O)o1` was tested, and the inhibition was inconclusive: 33%. For `CS(=O)(=O)C1=NN2C(=N)/C(=C\c3ccc(OC(=O)c4ccco4)cc3)C(=O)N=C2S1`, the inhibition was active: 56.6%. With `Nc1nc2c(s1)CCc1c-2cnn1-c1ccccc1` the inhibition was inconclusive: 54.2%. In the case of `COC(=O)c1cccc2c1NC(=O)C2=O`, the inhibition is reported as inconclusive: 16.2%. `O=C(NCc1cccc(Cl)c1)C1CCC(=O)N(CCCN2CCOCC2)C1` (stereo unspecified) was tested, and the inhibition was inconclusive: 40.1%. `COc1ccc(-c2[nH]ncc2CN2CCN(C(=O)c3cccs3)CC2)c(F)c1` was tested, and the inhibition was inactive: 1.33%. `CCCCCc1cc(=O)oc2c(C(CCN3CCCC3)c3ccc(N(C)C)cc3)c(OC)cc(OC)c12` (stereo unspecified) was tested, and the inhibition was inconclusive: 49.3%. With `CCOC(=O)c1c(NC(=O)CC2SC(N)=NC2=O)sc2c1CCC(C)C2` (stereo unspecified) the inhibition was inactive: -1.91%. With `CCOC(=O)C1(Cc2cccc(Cl)c2)CCCN(C(=O)c2cc(C(C)C)nn2C)C1` (stereo unspecified) the inhibition was inconclusive: 34.9%. With `COc1cccc(CNC(=O)c2cc(COc3c(F)cccc3F)on2)c1` the inhibition was inconclusive: 27.9%. `O=C(O)c1cccc(NC(=S)N/N=C/c2ccccc2OCc2ccc(Br)cc2)c1` was tested, and the inhibition was inconclusive: 35%. `CC(=O)NC1C(=O)N=C(SC(C)C(=O)Nc2cccc(Cl)c2)NC1=O` (stereo unspecified) was tested, and the inhibition was inactive: -7.53%. In the case of `CCOC(=O)C1CCN(C(=O)c2cccs2)CC1`, the inhibition is reported as inconclusive: 32.1%. With `CC(=O)c1coc2ccc(OCCN3CCCCC3)cc12` the inhibition was inconclusive: 31.7%. In the case of `COc1ccc(-c2cc(C(=O)NCCN3CCOCC3)c3ccccc3n2)c(OC)c1`, the inhibition is reported as inactive: 1.67%. In the case of `O=C(NC1CC1)c1sc2cc(Cl)ccc2c1Cl`, the inhibition is reported as inactive: -4.31%. `NS(=O)(=O)c1ccc(CCNC(=O)c2cc(-c3ccco3)nc3ccccc23)cc1` was tested, and the inhibition was inactive: 22.2%. In the case of `O=C(O)C(Cc1ccccc1)N1C(=O)/C(=C/c2ccccc2)SC1=S` (stereo unspecified), the inhibition is reported as active: 52.6%. `COc1ccc2sc(N(CCCN(C)C)C(=O)c3ccc(S(=O)(=O)N4CCCc5ccccc54)cc3)nc2c1` was tested, and the inhibition was inconclusive: 48.3%. `CCOC(=O)c1c(CNCCN(CC)CC)n(C)c2cc(Br)c(OC)cc12` was tested, and the inhibition was active: 65.4%. In the case of `Fc1ccccc1-c1nc(NCCCN2CCOCC2)c2ccccc2n1`, the inhibition is reported as inactive: 5.3%. In the case of `Cc1ccc(S(=O)(=O)N2CCOCC2)cc1NC(=O)CNC1CCCC1`, the inhibition is reported as inactive: -4.21%. In the case of `CCOC(=O)COn1c(=O)c[n+]([O-])c2ccccc21`, the inhibition is reported as inactive: 0.243%. For `CCOC(=O)C1CCCN(C(=O)c2cc3cc(F)ccc3[nH]2)C1` (stereo unspecified), the inhibition was inconclusive: 28.6%. `FC(F)(F)C1CCCN(c2nsc3ccccc23)C1` (stereo unspecified) was tested, and the inhibition was active: 129%. In the case of `C/C(N)=C(/C#N)C(=O)COC(=O)c1cc(C)n(-c2ccc(F)cc2)c1C`, the inhibition is reported as inconclusive: 50%. With `CCc1ccccc1NC(=O)C1CCN(C(=O)c2ccc([N+](=O)[O-])cc2)CC1` the inhibition was active: 57.6%. In the case of `COc1ccc(N2CCN(C(=O)C(Cc3ccccc3)n3cccc3)CC2)cc1` (stereo unspecified), the inhibition is reported as inactive: -1.55%. For `CCOc1ccc(NC(=S)NC(=O)c2c(Cl)cnn2CC)c([N+](=O)[O-])c1`, the inhibition was inactive: 2.37%. For `C#CCOCCOCCOCCNc1nc(N2CCN(C(=O)CCCCCCCCCCNC(=O)[C@H](CO)n3cc(CCCSC)nn3)CC2)nc(N2CCN(C(=O)CCCCCCCCCCNC(=O)[C@H](CCCN=C(N)N)n3cc(C[C@@H](C)CC)nn3)CC2)n1`, the inhibition was inconclusive: 44.7%. `Cc1c(Cl)cccc1NC(CC(=O)c1ccccc1)C(=O)O` (stereo unspecified) was tested, and the inhibition was active: 70%. `O=C(CCn1cnc(-c2ccccc2)c1-c1ccccc1)N/N=C/c1ccc(O)cc1` was tested, and the inhibition was inconclusive: 42%. For `Cc1cc(C)n2nc(C(=O)Nc3nnc(C4CC4)s3)nc2n1`, the inhibition was inconclusive: 34.1%. With `O=C(c1cc(-c2cccs2)nc2ccccc12)N1CCN(c2ccccc2O)CC1` the inhibition was inconclusive: 43.5%. `COc1ccc(/C=N/NC(=O)C(=O)NCc2cccnc2)cc1` was tested, and the inhibition was inactive: -7.01%. With `Cc1c(CCOC(=O)C23CC4CC(CC(C)(C4)C2)C3)sc[n+]1CC(=O)c1ccccc1` the inhibition was inconclusive: 45.7%. For `Cc1ccc2[nH]c(=O)c(CN(Cc3cccs3)S(=O)(=O)c3ccc4c(c3)OCCO4)cc2c1`, the inhibition was inactive: 5.09%. For `Cn1c(CN2CCOCC2)nc2cc(NC(=O)c3ccccc3Cl)ccc21`, the inhibition was inconclusive: 26%. With `Cc1ccc(C(=O)N/C(=C\c2ccc(-c3ccc(Cl)cc3)o2)C(=O)NCCCN(C)C)cc1` the inhibition was inconclusive: 60.5%. `O=C(Nc1nc2cc3c(cc2s1)OCCO3)c1cccs1` was tested, and the inhibition was inactive: -1.09%. In the case of `O=C1NN(c2ccccc2)C(=O)/C1=C\c1ccc(-c2cc([N+](=O)[O-])ccc2O)o1`, the inhibition is reported as inactive: -2.71%. For `COc1ccc(NC(=S)N(CCCN2CCCC2)Cc2cccn2Cc2ccc(Cl)cc2)cc1Cl`, the inhibition was inconclusive: 54.3%. With `Cc1ccc(S(=O)(=O)N2CCOCC2)cc1C(=O)N1CCN(c2ncccn2)CC1` the inhibition was inactive: -11.3%. With `Cc1ccc(N(C(C)C(=O)N2CCOCC2)S(C)(=O)=O)cc1C` (stereo unspecified) the inhibition was inconclusive: 23.3%. `COC(=O)c1c(NC(=O)C2CC(C)=C(C)CC2C(=O)O)sc2c1CCCCC2` (stereo unspecified) was tested, and the inhibition was active: 56.5%. With `CC(=O)Nc1ccc(OCc2cccc([N+](=O)[O-])c2)cc1` the inhibition was active: 58%. For `CN1CCN(C2CCCCC2NS(=O)(=O)c2ccccc2)CC1` (stereo unspecified), the inhibition was inconclusive: 25.1%. `CSc1nnc(-c2cccs2)n1-c1ccccc1` was tested, and the inhibition was inactive: 7.1%. With `C[N+]1(C)CC2=Cc3ccccc3CC2C1` (stereo unspecified) the inhibition was inconclusive: 24.2%. In the case of `O=C(Nc1c2c(nn1-c1cccc(Cl)c1)CS(=O)(=O)C2)c1ccco1`, the inhibition is reported as inconclusive: 36.1%. In the case of `Cc1ccc(N2CCN(CC(O)COc3ccccc3)CC2)cc1` (stereo unspecified), the inhibition is reported as inactive: 4.15%. With `COc1ccc(C(=O)N2CCCN(C)CC2)cc1S(=O)(=O)N(C)Cc1ccccc1` the inhibition was inconclusive: 56.3%. In the case of `Cc1ccc(NC(=O)c2cccs2)cc1S(=O)(=O)Nc1cccc(Cl)c1`, the inhibition is reported as inconclusive: 35.4%. With `COc1ccc(/C=C2\SC(=S)N(C(C(=O)O)c3ccccc3)C2=O)c(OC)c1` (stereo unspecified) the inhibition was inconclusive: 42.5%. With `CCOC(=O)/C=C/S(=O)(=O)c1ccc(NC(C)=O)cc1` the inhibition was active: 124%. With `CC1Cc2nc(SCC(=O)Nc3ccc4c(c3)OCCO4)n(C)c(=O)c2S1` (stereo unspecified) the inhibition was inconclusive: 49.4%.
